Reference: PMC6461108 (Chemical Science, 2019)

Assay: general procedure: Fmoc solid-phase peptide synthesis; Rink Amide MBHA resin (loading capacity 0.36 mmol g-1) for S-peptide; DIC / Oxyma pure
Conditions: whole synthesis, NMR, scale of the general procedure 0.1 mmol

With “H2N-[O -4-Cl-Bn-(3-HABA)]-Phe-[O-iPr-(2-HABA)]-Gly-CO 2H” the “purity (crude or final not stated)” value was over 95%.
